Taken from: PubChem BioAssay AID504793 (Drosophila RNAi Screening Center, 2011)

- Aim: 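Genes required for cells to halt at G2/M after double-strand DNA breaks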 (primary screen)
- Cells: Drosophila S2R+ cells
- Reagent: long dsRNA against Drosophila genes, about 0.25 µg dsRNA per well
- Duration: 4 days of dsRNA, then 4 hours of drug before read-out
- Challenge: doxorubicin 0.5 µM for 4 hours to cause double-strand breaks, in cells also given a low, harmless dose of dsRNA against nbs to sensitise the assay
- Measurement: 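Mitotic index as the number of phospho-histone H3-positive cells in each well following doxorubicin, given as raw counts without normalisation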
- Scale: mitotic cells: higher = more cells in mitosis, weaker G2 arrest
- Hit rule: 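Genes are called active only when high mitotic counts were reproduced with independent dsRNAs and mitosis was checked for delay without damage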
- Calls: active = confirmed in follow-up tests; inactive = not confirmed
In all, the deposit lists about 23,000 reagents; below is an unselected part of those with a known target gene and a result. In the full data, 62 (0.27%) got an active call. 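Calls come from follow-up tests whose scores are not deposited, so confirmed genes may have low counts here; counts are not normalised per plate.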 The raw values are shown without normalisation. Names joined by + are all predicted targets of the reagent. No sequences are given here.

| gene knocked down | dsRNA | mitotic cells, replicate 1 | mitotic cells, replicate 2 | Outcome |
| --- | --- | --- | --- | --- |
| Gr64d + Gr64e | DRSC08446 | 10 | – | inactive |
| stan | DRSC05234 | 7 | – | inactive |
| stan | DRSC07697 | 14 | – | inactive |
| dpr13 | DRSC06160 | 7 | – | inactive |
| dpr13 | DRSC06464 | 6 | – | inactive |
| dpr13 | DRSC24196 | 6 | – | inactive |
| CG32812 | DRSC18478 | 13 | – | inactive |
| GstE6 | DRSC06676 | 9 | – | inactive |
| Bub3 | DRSC14168 | 9 | – | inactive |
| Bub3 | DRSC28779 | 10 | – | inactive |
| Nepl18 | DRSC14879 | 9 | – | inactive |
| CG14770 | DRSC17947 | 6 | – | inactive |
| ND-B14.5A | DRSC18500 | 12 | – | inactive |
| zetaTry | DRSC07720 | 4 | – | inactive |
| cutlet | DRSC00284 | 4 | – | inactive |
| cutlet | DRSC29552 | 3 | – | inactive |
| Osi3 | DRSC12175 | 4 | – | inactive |
| CG31528 | DRSC12003 | 6 | – | inactive |
| CG5002 | DRSC06911 | 9 | – | inactive |
| Act42A | DRSC04835 | 7 | – | inactive |
| Act42A | DRSC25061 | 7 | – | inactive |
| Jhbp14 | DRSC01988 | 3 | – | inactive |
| Pi4KIIalpha | DRSC12322 | 5 | – | inactive |
| Pi4KIIalpha | DRSC12323 | 2 | – | inactive |
| Pi4KIIalpha | DRSC29095 | 1 | – | inactive |
| CG4502 | DRSC23237 | 10 | – | inactive |
| Ppr-Y | DRSC20892 | 5 | – | inactive |
| msd5 | DRSC08560 | 64 | – | inactive |
| msd5 | DRSC26406 | 47 | – | inactive |
| Mco3 | DRSC15926 | 10 | – | inactive |
| Gyf | DRSC17202 | 9 | – | inactive |
| Gyf | DRSC28907 | 4 | – | inactive |
| CG13053 | DRSC09934 | 4 | – | inactive |
| CG3558 | DRSC00615 | 6 | – | inactive |
| CG3558 | DRSC29745 | 6 | – | inactive |
| bbg | DRSC11077 | 7 | – | inactive |
| bbg | DRSC11079 | 5 | – | inactive |
| bbg | DRSC25910 | 9 | – | inactive |
| bbg | DRSC27292 | 4 | – | inactive |
| l(3)mbt | DRSC16983 | 13 | – | inactive |
| l(3)mbt | DRSC26103 | 5 | – | inactive |
| jhamt | DRSC01985 | 5 | – | inactive |
| CG17404 | DRSC15234 | 5 | 15 | inactive |

Continued (2 carried over from the part before).
| gene knocked down | dsRNA | mitotic cells, replicate 1 | mitotic cells, replicate 2 | Outcome |
| --- | --- | --- | --- | --- |
| jhamt | DRSC01985 | 5 | – | inactive |
| CG17404 | DRSC15234 | 5 | 15 | inactive |
| CG18420 | DRSC01954 | 3 | – | inactive |
| CG17127 | DRSC02581 | 9 | – | inactive |
| CG17127 | DRSC28608 | 6 | – | inactive |
| CG14971 | DRSC08430 | 5 | – | inactive |
| Acp95EF | DRSC14102 | 15 | – | inactive |
| Tusp | DRSC15838 | 17 | – | inactive |
| Rcd-1r + CG13102 | DRSC03266 | 4 | – | inactive |
| NaPi-T | DRSC07476 | 6 | – | inactive |
| NaPi-T | DRSC24468 | 9 | – | inactive |
| CG12877 | DRSC14565 | 9 | – | inactive |
| CG15706 | DRSC06577 | 8 | – | inactive |
| Arl8 | DRSC16334 | 2 | – | inactive |
| Patronin | DRSC06756 | 6 | – | inactive |
| Patronin | DRSC06757 | 5 | – | inactive |
| Patronin | DRSC06994 | 11 | – | inactive |
| Cyp6g2 | DRSC07387 | 9 | – | inactive |
| Cyp6g2 | DRSC29325 | 8 | – | inactive |
| M6 | DRSC11869 | 9 | – | inactive |
| CG14408 | DRSC23396 | 4 | – | inactive |
| CG14435 | DRSC23282 | 7 | – | inactive |
| Ubc2 | DRSC01137 | 6 | – | inactive |
| Ubc2 | DRSC03468 | 4 | – | inactive |
| Ubc2 | DRSC29062 | 3 | – | inactive |
| Prx2 | DRSC20256 | 11 | – | inactive |
| Prx2 | DRSC29996 | 4 | – | inactive |
| CG17977 | DRSC06700 | 7 | – | inactive |
| c(3)G | DRSC15245 | 6 | – | inactive |
| c(3)G | DRSC26062 | 5 | – | inactive |
| dysf | DRSC14529 | 17 | – | inactive |
| dysf | DRSC14895 | 12 | – | inactive |
| dysf | DRSC14896 | 12 | – | inactive |
| lama | DRSC11361 | 13 | – | inactive |
